Assay results taken from the M2OR odorant receptor database.
The other results are listed elsewhere or left out. The calls were merged from several studies; some rest on single wells.

Assays:
Details in all cases: stereoisomer not certain
[1] = tested on: T1, O52I2
T1 sequence (whole entry): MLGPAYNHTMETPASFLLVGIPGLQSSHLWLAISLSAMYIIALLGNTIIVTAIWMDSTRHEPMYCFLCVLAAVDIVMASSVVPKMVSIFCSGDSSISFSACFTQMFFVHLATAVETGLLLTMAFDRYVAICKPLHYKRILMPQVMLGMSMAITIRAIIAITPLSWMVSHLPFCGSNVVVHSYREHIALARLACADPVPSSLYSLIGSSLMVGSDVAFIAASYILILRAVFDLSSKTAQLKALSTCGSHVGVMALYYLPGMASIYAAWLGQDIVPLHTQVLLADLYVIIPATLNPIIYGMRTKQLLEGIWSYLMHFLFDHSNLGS
Summary of the method: (§1)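 Values were gathered from published papers (main text and supplementary material), with extra details requested from the original authors when needed, and checked for typos and inconsistencies. Each receptor–molecule pair is called responsive (active) if the original authors judged the measured signal statistically different from baseline, and non-responsive (inactive) otherwise. Assay methods varied by source, often transient mammalian cell-line luciferase assays. Recorded details include cell line, G-protein, co-transfected protein and tags.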

[2] = tested on: T2, O52J3
T2 sequence (whole entry): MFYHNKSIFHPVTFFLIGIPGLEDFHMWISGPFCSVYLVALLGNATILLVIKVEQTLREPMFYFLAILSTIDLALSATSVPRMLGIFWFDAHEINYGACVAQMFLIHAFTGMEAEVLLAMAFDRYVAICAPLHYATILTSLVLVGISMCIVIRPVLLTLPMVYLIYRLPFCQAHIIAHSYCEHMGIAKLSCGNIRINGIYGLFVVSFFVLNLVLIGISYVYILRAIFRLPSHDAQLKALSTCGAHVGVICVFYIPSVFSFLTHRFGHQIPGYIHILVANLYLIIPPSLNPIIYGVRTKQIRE
Summary of the method: as §1

[3] = tested on: T3, O52L1
T3 sequence (whole entry): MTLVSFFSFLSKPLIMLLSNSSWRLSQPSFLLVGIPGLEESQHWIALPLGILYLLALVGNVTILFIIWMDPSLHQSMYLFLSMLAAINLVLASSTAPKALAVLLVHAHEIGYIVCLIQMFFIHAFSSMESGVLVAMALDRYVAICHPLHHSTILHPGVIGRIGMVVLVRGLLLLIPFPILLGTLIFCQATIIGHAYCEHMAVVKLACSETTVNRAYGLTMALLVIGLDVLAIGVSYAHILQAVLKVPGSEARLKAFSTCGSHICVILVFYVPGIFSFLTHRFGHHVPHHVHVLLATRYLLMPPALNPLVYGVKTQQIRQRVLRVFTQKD
Summary of the method: as §1

[4] = tested on: T4, O52L2
T4 sequence (whole entry): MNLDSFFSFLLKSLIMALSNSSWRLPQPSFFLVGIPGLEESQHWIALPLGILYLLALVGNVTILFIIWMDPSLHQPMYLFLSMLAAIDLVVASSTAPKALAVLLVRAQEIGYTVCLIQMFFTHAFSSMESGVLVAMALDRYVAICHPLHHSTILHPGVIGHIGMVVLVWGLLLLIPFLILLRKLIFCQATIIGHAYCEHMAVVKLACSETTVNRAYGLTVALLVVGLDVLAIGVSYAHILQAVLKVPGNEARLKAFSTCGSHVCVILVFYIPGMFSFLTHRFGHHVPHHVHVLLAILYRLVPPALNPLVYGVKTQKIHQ
Summary of the method: as §1

[5] = tested on: T5, O52M1
T5 sequence (whole entry): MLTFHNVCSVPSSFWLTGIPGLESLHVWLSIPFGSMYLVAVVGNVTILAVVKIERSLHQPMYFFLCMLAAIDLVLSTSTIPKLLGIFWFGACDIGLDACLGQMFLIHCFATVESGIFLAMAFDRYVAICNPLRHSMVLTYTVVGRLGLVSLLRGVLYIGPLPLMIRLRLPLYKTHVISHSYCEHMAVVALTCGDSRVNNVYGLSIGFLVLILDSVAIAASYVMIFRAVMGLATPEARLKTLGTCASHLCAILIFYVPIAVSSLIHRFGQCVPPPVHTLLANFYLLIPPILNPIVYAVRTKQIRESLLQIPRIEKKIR
Summary of the method: as §1

[6] = tested on: T6, O52N1
T6 sequence (whole entry): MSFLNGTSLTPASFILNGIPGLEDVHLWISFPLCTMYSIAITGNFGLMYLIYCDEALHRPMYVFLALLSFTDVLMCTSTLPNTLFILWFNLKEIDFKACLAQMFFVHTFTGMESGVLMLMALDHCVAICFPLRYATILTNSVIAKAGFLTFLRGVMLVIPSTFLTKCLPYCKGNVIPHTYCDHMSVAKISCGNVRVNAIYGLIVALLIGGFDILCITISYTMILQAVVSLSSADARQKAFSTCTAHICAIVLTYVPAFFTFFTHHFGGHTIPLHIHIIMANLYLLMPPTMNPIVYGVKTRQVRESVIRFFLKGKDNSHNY
Summary of the method: as §1

[7] = tested on: T7, O52N2
T7 sequence (whole entry): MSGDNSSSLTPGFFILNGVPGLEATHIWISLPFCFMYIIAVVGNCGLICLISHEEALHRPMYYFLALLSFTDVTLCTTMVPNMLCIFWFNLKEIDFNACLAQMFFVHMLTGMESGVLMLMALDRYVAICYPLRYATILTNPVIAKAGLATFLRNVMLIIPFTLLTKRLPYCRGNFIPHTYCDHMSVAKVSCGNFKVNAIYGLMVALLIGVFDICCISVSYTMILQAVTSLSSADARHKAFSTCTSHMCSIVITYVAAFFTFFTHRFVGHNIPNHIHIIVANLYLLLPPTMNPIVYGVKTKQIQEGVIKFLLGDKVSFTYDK
Summary of the method: as §1

[8] = tested on: T8, O52N4
T8 sequence (whole entry): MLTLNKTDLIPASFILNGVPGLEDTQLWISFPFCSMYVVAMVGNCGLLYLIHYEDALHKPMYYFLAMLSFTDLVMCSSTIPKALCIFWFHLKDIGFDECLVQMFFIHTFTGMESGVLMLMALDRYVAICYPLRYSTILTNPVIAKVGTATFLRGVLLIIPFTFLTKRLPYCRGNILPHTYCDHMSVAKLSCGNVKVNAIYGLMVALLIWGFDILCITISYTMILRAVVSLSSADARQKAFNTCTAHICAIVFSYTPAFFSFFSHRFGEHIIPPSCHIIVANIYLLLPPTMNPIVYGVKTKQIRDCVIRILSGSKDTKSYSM
Summary of the method: as §1

[9] = tested on: T9, O52P1
T9 sequence (whole entry): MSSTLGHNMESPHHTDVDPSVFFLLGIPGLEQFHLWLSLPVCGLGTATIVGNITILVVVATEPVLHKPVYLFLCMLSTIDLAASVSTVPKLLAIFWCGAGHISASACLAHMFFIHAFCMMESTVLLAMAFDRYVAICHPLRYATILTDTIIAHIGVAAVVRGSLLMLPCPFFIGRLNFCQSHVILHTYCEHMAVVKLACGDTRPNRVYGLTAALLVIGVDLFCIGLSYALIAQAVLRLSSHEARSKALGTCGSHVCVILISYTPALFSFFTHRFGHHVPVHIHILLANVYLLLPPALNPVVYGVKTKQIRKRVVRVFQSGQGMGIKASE
Summary of the method: as §1

[10] = tested on: T10, O52R1
T10 sequence (whole entry): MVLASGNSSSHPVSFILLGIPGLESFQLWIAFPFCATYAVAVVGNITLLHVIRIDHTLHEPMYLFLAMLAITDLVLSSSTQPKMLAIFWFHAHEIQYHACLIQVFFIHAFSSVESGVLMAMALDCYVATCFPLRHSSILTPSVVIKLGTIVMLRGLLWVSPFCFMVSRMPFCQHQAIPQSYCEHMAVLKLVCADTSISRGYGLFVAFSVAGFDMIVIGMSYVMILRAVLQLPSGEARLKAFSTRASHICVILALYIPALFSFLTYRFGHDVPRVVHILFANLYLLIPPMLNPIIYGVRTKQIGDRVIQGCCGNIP
Summary of the method: as §1

[11] = tested on: T11, O52W1
T11 sequence (whole entry): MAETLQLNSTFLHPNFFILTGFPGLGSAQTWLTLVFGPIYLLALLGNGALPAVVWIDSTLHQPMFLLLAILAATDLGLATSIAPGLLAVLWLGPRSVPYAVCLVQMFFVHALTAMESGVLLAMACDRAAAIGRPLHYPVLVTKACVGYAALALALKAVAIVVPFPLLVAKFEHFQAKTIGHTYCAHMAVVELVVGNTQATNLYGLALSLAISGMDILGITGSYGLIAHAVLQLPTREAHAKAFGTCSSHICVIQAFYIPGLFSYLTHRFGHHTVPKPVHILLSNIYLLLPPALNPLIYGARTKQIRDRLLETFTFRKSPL
Summary of the method: as §1

[12] = tested on: T12, O56A3
T12 sequence (whole entry): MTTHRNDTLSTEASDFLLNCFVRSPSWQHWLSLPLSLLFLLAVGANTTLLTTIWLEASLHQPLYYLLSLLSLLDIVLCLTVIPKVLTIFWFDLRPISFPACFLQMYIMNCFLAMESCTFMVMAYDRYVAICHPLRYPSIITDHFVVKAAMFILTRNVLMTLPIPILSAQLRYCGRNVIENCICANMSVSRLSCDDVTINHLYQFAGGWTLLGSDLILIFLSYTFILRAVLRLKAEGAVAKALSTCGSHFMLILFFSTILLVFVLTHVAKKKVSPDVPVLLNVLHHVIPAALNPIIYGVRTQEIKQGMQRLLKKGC
Summary of the method: as §1

[13] = tested on: T13, O56B1
T13 sequence (whole entry): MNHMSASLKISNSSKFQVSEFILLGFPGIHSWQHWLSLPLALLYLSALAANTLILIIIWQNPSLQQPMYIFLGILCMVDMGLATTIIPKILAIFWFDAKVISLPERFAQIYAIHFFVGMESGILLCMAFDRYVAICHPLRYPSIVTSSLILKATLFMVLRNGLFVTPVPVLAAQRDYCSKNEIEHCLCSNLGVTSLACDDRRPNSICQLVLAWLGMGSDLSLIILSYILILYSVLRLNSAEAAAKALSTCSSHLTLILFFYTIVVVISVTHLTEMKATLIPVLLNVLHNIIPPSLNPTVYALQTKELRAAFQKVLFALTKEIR
Summary of the method: as §1

[14] = tested on: T14, O56B4
T14 sequence (whole entry): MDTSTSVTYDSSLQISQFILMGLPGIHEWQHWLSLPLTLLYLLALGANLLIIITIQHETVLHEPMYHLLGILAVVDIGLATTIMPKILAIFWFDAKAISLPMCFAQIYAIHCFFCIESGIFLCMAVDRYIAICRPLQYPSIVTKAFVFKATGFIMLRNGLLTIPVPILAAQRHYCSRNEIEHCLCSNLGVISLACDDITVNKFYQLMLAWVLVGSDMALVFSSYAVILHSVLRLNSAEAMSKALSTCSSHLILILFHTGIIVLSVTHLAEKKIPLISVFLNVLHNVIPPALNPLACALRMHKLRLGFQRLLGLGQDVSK
Summary of the method: as §1

[15] = tested on: T15, O5AC2
T15 sequence (whole entry): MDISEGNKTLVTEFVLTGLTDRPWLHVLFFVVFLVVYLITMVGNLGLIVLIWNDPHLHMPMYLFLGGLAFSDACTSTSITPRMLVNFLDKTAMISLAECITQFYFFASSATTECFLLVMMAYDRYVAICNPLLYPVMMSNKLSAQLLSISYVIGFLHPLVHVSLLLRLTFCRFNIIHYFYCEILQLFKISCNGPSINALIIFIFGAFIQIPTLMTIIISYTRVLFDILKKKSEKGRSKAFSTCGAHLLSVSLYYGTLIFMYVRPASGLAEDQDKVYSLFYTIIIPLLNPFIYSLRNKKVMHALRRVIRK
Summary of the method: as §1

[16] = tested on: T16, O5AK2
T16 sequence (whole entry): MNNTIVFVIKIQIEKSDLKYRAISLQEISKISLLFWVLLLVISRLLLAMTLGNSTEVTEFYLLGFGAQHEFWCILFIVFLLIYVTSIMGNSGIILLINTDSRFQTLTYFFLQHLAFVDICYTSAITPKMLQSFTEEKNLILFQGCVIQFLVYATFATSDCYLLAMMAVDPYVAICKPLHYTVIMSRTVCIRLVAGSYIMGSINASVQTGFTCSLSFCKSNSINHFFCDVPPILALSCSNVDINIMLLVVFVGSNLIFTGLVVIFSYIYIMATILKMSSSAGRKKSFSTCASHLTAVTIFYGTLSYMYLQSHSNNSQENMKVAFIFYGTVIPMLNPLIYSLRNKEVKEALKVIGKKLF
Summary of the method: as §1

[17] = tested on: T17, O5AK3
T17 sequence (whole entry): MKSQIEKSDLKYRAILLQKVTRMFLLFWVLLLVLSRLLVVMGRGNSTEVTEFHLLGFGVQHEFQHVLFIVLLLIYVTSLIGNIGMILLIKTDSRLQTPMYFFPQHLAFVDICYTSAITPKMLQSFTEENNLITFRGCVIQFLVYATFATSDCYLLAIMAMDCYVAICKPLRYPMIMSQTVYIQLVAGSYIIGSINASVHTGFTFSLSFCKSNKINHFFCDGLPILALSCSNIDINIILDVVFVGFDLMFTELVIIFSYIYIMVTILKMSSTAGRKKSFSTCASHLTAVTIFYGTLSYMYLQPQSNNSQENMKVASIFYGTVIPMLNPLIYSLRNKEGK
Summary of the method: as §1

Measured: odorant receptor agonist call

CC(C)CC(=O)O
active: [8]
inactive: all other assays above

CC(C)(C)c1ccc(CCC=O)cc1
inactive: all assays above

CC(C)=CCCC(C)=CC=O
active: [8] | [11]
inactive: all other assays above
